Results as given in article PMC9898794.
Results are given in words; binding and its absence hold for the method and conditions named. Some entries that bind do so weakly or less than the wild type.

The chains behind the UniProt entries cited, without tags or fusion partners. Residues count along the entry.
UniProt P25705, residues 44-553: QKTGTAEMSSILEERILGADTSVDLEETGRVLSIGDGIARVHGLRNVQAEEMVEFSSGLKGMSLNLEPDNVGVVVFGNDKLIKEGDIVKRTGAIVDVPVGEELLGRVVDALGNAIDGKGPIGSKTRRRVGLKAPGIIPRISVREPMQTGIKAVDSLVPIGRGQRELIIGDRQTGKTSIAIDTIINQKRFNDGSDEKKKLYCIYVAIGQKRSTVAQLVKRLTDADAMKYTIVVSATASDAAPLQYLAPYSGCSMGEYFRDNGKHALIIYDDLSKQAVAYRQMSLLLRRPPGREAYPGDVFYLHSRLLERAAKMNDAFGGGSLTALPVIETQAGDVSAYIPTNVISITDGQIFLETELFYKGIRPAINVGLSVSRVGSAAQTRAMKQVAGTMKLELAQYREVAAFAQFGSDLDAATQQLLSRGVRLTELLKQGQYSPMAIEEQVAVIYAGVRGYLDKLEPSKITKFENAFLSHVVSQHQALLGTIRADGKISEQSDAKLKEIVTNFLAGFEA

Tests used:
[1] = target: T1, ATP5F1C (human (endogenous in HT29)) (UniProt P36542); experiment: SEC; SEC-MS: HT29 lysate (sonicated in PBS without detergent) on Superose 6 10/300 GL in PBS pH 7.2, 24 fractions, each digested and read by LC-MS/MS (label-free); cells treated 8 h with DMSO or 62.5 nM tanespimycin; co-elution of endogenous proteins
T1 sequence: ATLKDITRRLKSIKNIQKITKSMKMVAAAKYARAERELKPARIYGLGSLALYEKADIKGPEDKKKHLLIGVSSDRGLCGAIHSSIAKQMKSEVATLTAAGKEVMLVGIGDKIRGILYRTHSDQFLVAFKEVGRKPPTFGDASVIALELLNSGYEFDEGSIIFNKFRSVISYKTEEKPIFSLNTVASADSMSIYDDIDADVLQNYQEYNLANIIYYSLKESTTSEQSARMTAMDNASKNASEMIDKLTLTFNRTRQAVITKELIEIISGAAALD

[2] = target: T1, ATP5F1C (human (endogenous in HT29)); experiment: SEC; SEC-MS as a1, only the HSP90i condition: HT29 cells treated 8 h with 62.5 nM tanespimycin

binding [1]: binds
binding [2]: binds weakly
Substance: ATP5F1A (from UniProt P25705 44-553)
